Data from paper PMC6687534.
These are yes or no findings as the source states them, for the method shown. In cells and extracts the contact can be indirect. Here binding means that the protein was enriched with, or labelled near, the bait; the list need not be complete.

Protein sequences, listed by entry. Tags and fused reporters are not part of them.
UniProt Q9UKT9: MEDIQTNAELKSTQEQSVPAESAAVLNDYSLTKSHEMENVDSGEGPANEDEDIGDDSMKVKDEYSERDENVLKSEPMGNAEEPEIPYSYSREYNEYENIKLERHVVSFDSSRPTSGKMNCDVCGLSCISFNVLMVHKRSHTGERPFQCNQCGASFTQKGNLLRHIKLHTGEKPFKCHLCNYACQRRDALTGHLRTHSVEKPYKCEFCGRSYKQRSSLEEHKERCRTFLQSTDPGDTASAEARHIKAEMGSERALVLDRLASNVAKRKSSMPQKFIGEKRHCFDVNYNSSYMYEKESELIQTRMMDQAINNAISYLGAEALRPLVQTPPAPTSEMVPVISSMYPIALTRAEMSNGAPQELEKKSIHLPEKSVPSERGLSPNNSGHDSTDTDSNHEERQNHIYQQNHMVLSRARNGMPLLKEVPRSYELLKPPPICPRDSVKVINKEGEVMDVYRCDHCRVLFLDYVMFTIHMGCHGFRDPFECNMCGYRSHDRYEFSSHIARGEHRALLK
UniProt Q13951: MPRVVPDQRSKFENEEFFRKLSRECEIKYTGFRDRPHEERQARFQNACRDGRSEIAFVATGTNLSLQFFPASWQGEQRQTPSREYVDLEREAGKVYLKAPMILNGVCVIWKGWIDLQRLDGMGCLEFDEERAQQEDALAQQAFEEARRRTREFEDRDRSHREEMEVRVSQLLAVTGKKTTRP
UniProt Q13761: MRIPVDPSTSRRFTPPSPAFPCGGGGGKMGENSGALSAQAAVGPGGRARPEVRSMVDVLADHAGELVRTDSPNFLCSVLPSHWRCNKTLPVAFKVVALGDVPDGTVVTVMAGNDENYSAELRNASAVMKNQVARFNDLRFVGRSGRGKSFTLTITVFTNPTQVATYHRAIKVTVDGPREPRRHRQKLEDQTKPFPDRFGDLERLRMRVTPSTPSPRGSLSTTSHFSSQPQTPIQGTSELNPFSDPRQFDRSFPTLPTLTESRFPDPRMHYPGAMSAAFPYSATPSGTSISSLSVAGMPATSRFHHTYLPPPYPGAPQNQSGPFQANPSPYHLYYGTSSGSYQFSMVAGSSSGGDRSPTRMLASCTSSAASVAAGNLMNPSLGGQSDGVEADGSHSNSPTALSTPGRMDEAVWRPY

Target: FLAG-tagged human IKZF3, stably expressed in myeloma cells (human) (UniProt Q9UKT9)
Test: affinity purification with mass spectrometry; anti-FLAG affinity purification from ARP-1 cells stably expressing FLAG-IKZF1 or FLAG-IKZF3, from nuclear extract (nucleoplasm) or benzonase-extracted detergent-insoluble fraction (DNA-bound); FLAG-peptide eluates, MudPIT; relative to cells infected with an empty virus

Substance	binding
endogenous RUNX1 of myeloma cells (from UniProt Q01196 1-453)	binds
endogenous CBFβ of ARP-1 cells (from UniProt Q13951 1-182)	binds
endogenous RUNX3 of myeloma cells (from UniProt Q13761 1-415)	binds
